In patent US20140162974A1, “METHODS FOR MODULATION OF PHOSPHORUS AND FGF23” (Luitpold Pharmaceuticals, Inc., priority 2012, published 2014):

System: intact FGF23 (iFGF23)
Test: Example 3 trial: serum intact FGF23
Type: in vivo, human
Conditions: mean ± standard error; unit from the 3rd table
Method: Study visits were on Days 0 (when iron was infused), 1 (24 hours after iron infusion), 7, 14, and 35. The primary objectives were to determine the effect of iron deficiency on cFGF23 and iFGF23 levels and the effect of intravenous iron on iFGF23 and cFGF23 levels.
Randomization occurred centrally via a fax-based system. […] The complete dose was infused over 15 minutes on day 0. […] An initial test dose of 25 mg was administered slowly over 5 minutes.
Laboratory testing of blood and three-hour urine collections was performed at the screening visit and on study days 0 (when iron was infused), 1 (24 hours after iron infusion), 7, 14, and 35 (see e.g., FIG. 2A). […]
Blood and urine samples were sent to a central laboratory for analysis (Covance Central Laboratory Service, Indianapolis, Ind.). Hemoglobin, blood counts, iron indices, electrolytes, and serum and urinary phosphate and creatinine were measured with standard, automated, multi-analyte techniques. Urinary fractional excretion of phosphate (FEPi) was calculated from the three-hour, morning urine collections as urinary phosphate x serum creatinine/serum phosphate x urinary creatinine. Serum levels of 25-hydroxyvitamin D and 1,25-dihydroxyvitamin D were measured in duplicate by radioimmunoassay (DiaSorin, Stillwater, Minn.) with intra-assay coefficients of variation (CV)<11.6%. […]

Question: “polynuclear iron (III)-hydroxide 4(R)-(poly-(1→4)-O-α-glucopyranosyl)-oxy-2(R),3(S),5(R),6-tetrahydroxy-hexanoate [FCM]” was tested. Which “Intact FGF23, Baseline” value did it give?
Answer: 28.6 ± 1.4 pg/mL
